Earlier results as cited in patent US20060073504A1, “Treatment of pain by inhibition of caspase signaling” (The Regents of the University of California, priority 2004, published 2006).
Structures can show the parent of a compound that is named as a salt. Some entries share one result that the patent states for a list of compounds.

System: mechanical nociceptive threshold
Conditions: single i.v. injection: VCR 200 μg/kg, STZ 50 mg/kg, cited from earlier work

SMILES: CC[C@]1(O)C[C@H]2CN(CCc3c([nH]c4ccccc34)[C@@](C(=O)OC)(c3cc4c(cc3OC)N(C=O)[C@H]3[C@@](O)(C(=O)OC)[C@H](OC(C)=O)[C@]5(CC)C=CCN6CC[C@]43[C@@H]65)C2)C1 [VCR, vincristine sulfate]
- persistence of hyperalgesia (ddC 50 mg/kg): over 15 days
- reduction in paw-withdrawal / nociceptive threshold: > 30%
